Results are given in words; binding and its absence hold for the method and conditions named. Some entries that bind do so weakly or less than the wild type.

The chains behind the UniProt entries cited, without tags or fusion partners. Residues count along the entry.
UniProt P16860, residues 27-102: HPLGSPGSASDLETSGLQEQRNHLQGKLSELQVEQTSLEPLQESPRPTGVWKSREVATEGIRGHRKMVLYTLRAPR

The assay has as its target Recombinant NT antigen (N-terminal pro-brain natriuretic peptide, NT-proBNP) (human) (UniProt P16860). Put plainly: indirect ELISA on coated recombinant NT antigen. (ELISA stands for enzyme-linked immunosorbent assay.)

B1: Mutation 1 (antibody, V domains shown)
VH: QVRLQESGPSQVKPAQTLSLTCAISGFSITTYYIDWVRHTPGKPPEWLAQMTKDGNAVHQPTIRSRLSITRDTSKSQVFLKLTGVTTEDTAVYYCVRGIIDWGPGLLVTVSS
VL: QAVLTQPSSVSRSLGQTVSITCSGSSDQVGFGDYVNWFQLIPGSAPKTLIFGATSRIRGVPDRFSGSRSGNTATLTINSLQAEDEADYYCGSPNSRGGYVFGSGTRLTVLS
notes: also called mutant 1 antibody
B1: the binding entry is “binds”.

Source of the values: patent publication US20220025008A1 (FAPON BIOTECH, published 2022).
